This is an account of results in US5232917A, “Methods, compositions, and compounds for allosteric modulation of the GABA receptor by members of the androstane and pregnane series” (priority 1991, dated 1993).

Structures are written as SMILES.

This test concerns GABA receptor-chloride ionophore complex (GR complex). The experiment in a line: Dissociation kinetics of [35S]TBPS in rat cerebral cortical membranes. In kind it is binding. The conditions noted are these: alphaxalone 300 nM, 3α-OH-DHP 20 nM.
Where [1] appears, read: Na pentobarbital 30 μM, 2 nM [35S]TBPS.

Turning to `CC(=O)[C@H]1CC[C@H]2[C@@H]3CC[C@H]4C[C@H](O)CC[C@]4(C)[C@H]3C(=O)C[C@]12C` [alphaxalone, 5α-PREGNAN-3α-OL-11,20-DIONE], for the setting “Na pentobarbital 30 μM”, the “Total percentage of specific sites, rapid (R)” value amounted to 34 ± 5% and the “Total percentage of specific sites, slow (S)” value came to 73 ± 4%. Moreover, under setting [1], the “K-1, rapidly dissociating component (R)” value worked out at 0.180 ± 0.040 min⁻¹; the “K-1, slowly dissociating component (S)” value came to 0.0120 ± 0.003 min⁻¹; the “T1/2, rapidly dissociating component (R)” value came out at 4.9 ± 1 min; the “T1/2, slowly dissociating component (S)” value came out at 67 ± 12 min. Also, where the note is “pentobarbital 30 μM, FIGS. 2A, 2B”, the “biphasic dissociation mechanism of [35S]TBPS” value was “absent”.
